We go through one molecule from publication PMC8280128, “Antioxidant and food additive BHA prevents TNF cytotoxicity by acting as a direct RIPK1 inhibitor” (Cell Death & Disease, 2021).

The chains behind the UniProt entries cited, without tags or fusion partners. Residues count along the entry.
UniProt P01375, residues 77-233: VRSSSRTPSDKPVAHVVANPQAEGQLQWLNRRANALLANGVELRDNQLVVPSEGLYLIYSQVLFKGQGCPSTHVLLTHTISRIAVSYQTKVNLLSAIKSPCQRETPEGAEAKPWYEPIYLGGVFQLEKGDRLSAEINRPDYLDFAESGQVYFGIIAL

The experiment deals with FLAG-tagged human TNF (human) (UniProt P01375). In words: co-IP; TNFR1 complex I IP: cells (MEFs; human HT-29 and BT549) stimulated with 1 µg/ml FLAG-hTNF, lysed in NP-40 lysis buffer (10% glycerol, 1% NP-40, 150 mM NaCl, 10 mM Tris-HCl pH 8), FLAG M2 affinity gel overnight, IPs treated with USP21, immunoblot; cells pretreated or not with IKKi, TBK1i, zVAD-fmk, BHA, other antioxidants, rotenone or NDGA; only the target purified. On the technique in general: In western blotting, separated proteins are transferred to a membrane and probed.

No constants are given. Whether binding was seen depends on the method and setting. In cells and extracts the contact can be indirect. Some binding calls cover weakened binding; strength is not graded here.

B1: TRADD (protein, UniProt Q3U0V2 1-310)
chain: MAAGQNGHEEWVGSAYLFLESAVDKVILSEAYTDPKKKVAIYKALQTALSESGDSSDVLQILKIHCSDPQLIVQLRFCGRVLCGRFLQAYREGALRTALQRCMAPALAQEALRLQLELRAGAEQLDSWLTDEERCLNYILAQKPDRLRDEELAELEDELCKLTCDCTGQGGAIQVASAGSKFPVSSPTEEKPLPAACQTFLFHGQLVVNRPLTLQDQQTFARSVGLKWRRVGRSLQRNCRALRDPALDSLAYEYERDGLYEQAFQLLRRFMQAEGRRATLQRLVEALEENELTSLAEDLLGQAEPDGGLA
B1: the binding entry is given as “binds”.
